The text below walks through data of publication PMC10518340, “Secreted LRPAP1 binds and triggers IFNAR1 degradation to facilitate virus evasion from cellular innate immunity” (Signal Transduction and Targeted Therapy, 2023).

Chains of the proteins cited; added tags and fusions are not shown. Lines headed by an entry give the natural chain unless they say otherwise; changes in a name come on top. Residues count along the entry.
UniProt P17181: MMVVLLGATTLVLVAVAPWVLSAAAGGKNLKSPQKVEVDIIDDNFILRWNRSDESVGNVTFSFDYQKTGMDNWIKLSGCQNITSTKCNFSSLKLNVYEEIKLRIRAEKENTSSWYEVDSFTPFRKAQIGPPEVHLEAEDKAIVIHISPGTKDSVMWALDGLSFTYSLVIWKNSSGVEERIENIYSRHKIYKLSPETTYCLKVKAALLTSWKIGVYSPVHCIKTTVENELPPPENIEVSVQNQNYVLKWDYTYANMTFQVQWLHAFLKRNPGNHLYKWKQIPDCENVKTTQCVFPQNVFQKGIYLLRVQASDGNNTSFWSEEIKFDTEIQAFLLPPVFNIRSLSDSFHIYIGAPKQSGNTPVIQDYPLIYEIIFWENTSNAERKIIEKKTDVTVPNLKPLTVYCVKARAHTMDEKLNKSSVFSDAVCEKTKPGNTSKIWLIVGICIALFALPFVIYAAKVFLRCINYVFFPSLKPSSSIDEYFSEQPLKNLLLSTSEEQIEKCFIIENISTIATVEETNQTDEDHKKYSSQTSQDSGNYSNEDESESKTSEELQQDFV
IFNAR1 ectopically expressed in HEK-293T cells: residues 28-557 of P17181
recombinant extracellular domain of IFNAR1 (ECD-IFNAR1): residues 28-436 of P17181
UniProt P30533, residues 35-357: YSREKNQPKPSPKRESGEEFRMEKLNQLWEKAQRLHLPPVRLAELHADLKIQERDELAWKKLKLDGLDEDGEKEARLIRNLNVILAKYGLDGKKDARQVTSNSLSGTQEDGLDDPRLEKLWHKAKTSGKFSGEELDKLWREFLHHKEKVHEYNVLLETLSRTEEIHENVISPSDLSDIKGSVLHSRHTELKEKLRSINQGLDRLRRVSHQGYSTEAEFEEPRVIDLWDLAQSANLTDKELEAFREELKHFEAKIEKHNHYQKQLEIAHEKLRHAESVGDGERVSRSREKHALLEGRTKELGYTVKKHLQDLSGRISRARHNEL

No constants are given. Whether binding was seen depends on the method and setting. Binding seen in cells or lysates may run through a third protein. Some binding calls cover weakened binding; strength is not graded here.

The target in experiment [1] is IFNAR1 ectopically expressed in HEK-293T cells (UniProt P17181). In words: co-IP; HEK-293T cells ectopically expressing LRPAP1 and IFNAR1; lysis buffer with 1% SDS, 1% NP-40; indicated antibodies overnight at 4 °C, protein A/G plus-agarose; immunoblot. (A western blot detects proteins with antibodies after separation by electrophoresis.)
The target in experiment [2] is recombinant extracellular domain of IFNAR1 (ECD-IFNAR1) (UniProt P17181). Kind of experiment: pull-down; extracellular domain of IFNAR1 (Sino Biological 13222-H08H) with lysates of HEK-293T cells overexpressing LRPAP1; immunoblot; only the target purified.

Take “LRPAP1 ectopically expressed in HEK-293T cells (from UniProt P30533 35-357)”: the binding entry in experiment [1] and in experiment [2] was “binds” each time.
